Assay results reported in paper PMC4707779.
No constants are given. Whether binding was seen depends on the method and setting. Binding seen in cells or lysates may run through a third protein. Some entries that bind do so weakly or less than the wild type. For part of these data: Sequences can lack the tags named with a protein.

Chains of the proteins cited; added tags and fusions are not shown.
UniProt Q13616: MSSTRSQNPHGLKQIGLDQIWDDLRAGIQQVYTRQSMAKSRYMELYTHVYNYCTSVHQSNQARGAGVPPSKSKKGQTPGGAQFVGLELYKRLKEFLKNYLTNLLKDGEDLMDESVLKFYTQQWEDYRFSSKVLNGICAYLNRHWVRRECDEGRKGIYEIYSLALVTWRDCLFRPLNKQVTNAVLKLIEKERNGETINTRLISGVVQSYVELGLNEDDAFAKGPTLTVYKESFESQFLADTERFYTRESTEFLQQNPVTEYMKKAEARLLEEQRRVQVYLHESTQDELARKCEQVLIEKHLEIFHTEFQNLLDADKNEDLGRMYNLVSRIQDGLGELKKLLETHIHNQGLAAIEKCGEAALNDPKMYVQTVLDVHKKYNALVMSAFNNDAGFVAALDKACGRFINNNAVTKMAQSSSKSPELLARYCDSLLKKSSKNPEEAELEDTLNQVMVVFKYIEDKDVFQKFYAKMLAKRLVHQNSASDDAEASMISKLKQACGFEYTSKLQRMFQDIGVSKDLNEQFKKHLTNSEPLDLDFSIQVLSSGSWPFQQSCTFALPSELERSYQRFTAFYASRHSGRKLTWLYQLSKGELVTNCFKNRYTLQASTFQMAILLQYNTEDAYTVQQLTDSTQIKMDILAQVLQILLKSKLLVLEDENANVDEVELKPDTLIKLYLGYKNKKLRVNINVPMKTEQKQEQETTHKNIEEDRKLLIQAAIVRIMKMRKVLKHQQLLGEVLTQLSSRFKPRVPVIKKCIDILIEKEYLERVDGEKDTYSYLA
UniProt P63208: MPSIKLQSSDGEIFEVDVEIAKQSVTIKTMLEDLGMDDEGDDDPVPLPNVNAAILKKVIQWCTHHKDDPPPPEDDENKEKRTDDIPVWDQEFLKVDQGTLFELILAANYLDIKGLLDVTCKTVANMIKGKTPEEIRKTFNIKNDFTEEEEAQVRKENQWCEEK

Legend:
[1] = target: T1, WT FBXO32 carrying a Flag epitope (human) (UniProt Q969P5); experiment: co-IP; HEK293 cells co-transfected with Flag-FBXO32 (WT or G243R), GFP-SKP1, myc-CUL1 and HA-ROC1; 400-700 ug of total cell lysate on Flag resins, 2 h at 4 °C; immunoblotting
T1 sequence: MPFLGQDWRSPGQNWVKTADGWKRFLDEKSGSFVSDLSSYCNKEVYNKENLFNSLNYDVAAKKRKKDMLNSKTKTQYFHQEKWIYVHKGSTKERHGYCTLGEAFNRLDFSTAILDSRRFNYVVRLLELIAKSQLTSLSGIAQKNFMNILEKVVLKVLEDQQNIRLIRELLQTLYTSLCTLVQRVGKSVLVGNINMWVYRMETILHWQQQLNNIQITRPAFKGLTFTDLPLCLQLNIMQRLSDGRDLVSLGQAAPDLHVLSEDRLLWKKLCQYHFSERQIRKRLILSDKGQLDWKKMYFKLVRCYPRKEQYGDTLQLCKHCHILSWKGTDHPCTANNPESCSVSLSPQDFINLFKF

[2] = target: T2, FBXO32 of control hearts and hearts of patients with idiopathic dilated cardiomyopathy (human (endogenous in heart tissue)) (UniProt Q969P5); experiment: co-IP; protein extracts of human left ventricle (control, IDC, patients IV.5 and IV.7); immunoprecipitation with primary antibody or control IgG, immunoblotting; the precipitating antibody is not named
T2 sequence: T1 sequence

myc-CUL1 = myc-CUL1 (UniProt Q13616); experiment: co-IP; HEK293 cells co-transfected with WT or mutant FBXO32 and CUL1, ROC1 and SKP1; CUL1 absorbed on c-Myc-beads, 2 h at 4 °C; immunoblotting

Question: Which binding [1] does the source give for GFP-SKP1 (from UniProt P63208 1-163) here?
Answer: binds

Question: How did the binding [2] turn out when “SKP1 of human heart tissue (from UniProt P63208 1-163)” was run?
Answer: binds

B1: WT FBXO32 carrying a Flag epitope (protein, UniProt Q969P5-1 1-355)
chain: T1 sequence
Question: With B1 as the molecule, how does the binding (myc-CUL1) read?
Answer: binds
